# Record: PubChem BioAssay AID652272 (Drosophila RNAi Screening Center, 2013)
# Screen: 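Genome-wide knock-down search for components of Hedgehog signalling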 (primary screen)
# Cells: Drosophila clone 8 (Cl8) cells
# Knock-down reagent: long dsRNA against Drosophila genes
# Measurement: 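Plate reader light from a firefly reporter under a ptc promoter fragment that responds to Hedgehog, with Renilla light as transfection reference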
# Reading the numbers: firefly Hh reporter signal: higher = more ptc reporter light; Renilla reference signal: higher = more Renilla control light
# Hit rule: 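Hit when the z-score averaged over two replicates is under -2 or over +3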
# Calls: active = hit: reporter lowered or raised; inactive = not a hit
# The screen tested about 21,000 reagents; below is an unselected part of those with a known target gene and a result. Of all reagents, 503 (2.4%) are marked active. 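Raw plate light values, not normalised; calls rest on replicate z-scores that were not deposited; hits include reporter decreases as well as increases.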 A number with no mark means an inactive call. The numbers tell different reagents against one gene apart. A plus sign joins genes that one reagent is predicted to hit. Not stated in the record: the amount of reagent, the time to read-out.
gene,dsRNA no.,"firefly Hh reporter signal, replicate 1","firefly Hh reporter signal, replicate 2","firefly Hh reporter signal, replicate 3","Renilla reference signal, replicate 1","Renilla reference signal, replicate 2"
Ciz1 (Ciz1 zinc finger protein),1,55762 (active),8513,13720,2906,1938
rb (ruby),1,82992,1.99e5,,3252,7452
"Polr2H (RNA polymerase II, I and III subunit H)",1,92096,90122,,3364,2919
RpS19a (Ribosomal protein S19a),1,30741 (active),70855,,2260,7079
His2Av (Histone H2A variant),1,1.35e5 (active),81100,,1672,1222
CG14820,1,68007,75605,,7005,5097
tai (taiman),1,37872,15953,,1376,1803
tai (taiman),2,94240,55675,,2210,3575
resilin,1,1.17e5,2.63e5,,3148,9274
resilin,2,1.55e5,72909,,4144,3956
CG34244,1,1.93e5,,,4955,
Or59a (Odorant receptor 59a),1,80669,40487,,2358,4045
Bet1 (Blocked early in transport 1),1,83494,94331,,1837,2042
Ir56a (Ionotropic receptor 56a),1,1.29e5,1.89e5,,4118,8097
CG14451,1,71322,96752,,2656,2363
CG14105,1,40464,33958,53338,2624,3731
retm (real-time),1,64800,86840,,2678,3628
Obp59a (Odorant-binding protein 59a),1,81891,75792,,2042,6259
CG15128,1,97589,47024,,2596,3155
asRNA:CR43468 + Lfg,1,75334,42464,,1450,3155
bowl,1,1.02e5,66212,,3472,2886
IFT43 (Intraflagellar transport 43),1,60172,54537,,2762,2202
CG1246,1,64023,71380,,2208,5106
hbt + CG43779,1,73376,50697,,1724,4162
CG43308,1,1.24e5,2.14e5,,3573,9357
14-3-3zeta,1,98257,72312,,3896,2565
hep (hemipterous),1,78469,1.95e5,,2147,8118
hep (hemipterous),2,64488,1.47e5,,2058,6563
CG4650,1,96107,74368,,2624,7040
"ATPsynCF6L (ATP synthase, coupling factor 6-like)",1,78244,65642,,7299,4897
eys (eyes shut),1,3.96e5,1.14e5,,20937,4679
eys (eyes shut),2,93204,99669,,2393,2564
eys (eyes shut),3,1.09e5,1.06e5,,2554,2124
eys (eyes shut),4,1.76e5,74009,,6297,3222
Gr58a (Gustatory receptor 58a),1,1.08e5,1.58e5,,3132,7717
Femcoat,1,72033,1.19e5,,2215,4955
Lsp1beta (Larval serum protein 1 beta),1,80405,56618,,3593,2458
CG12693,1,86636,1.88e5,,3168,6793
ATPCL (ATP citrate lyase),1,96628,55709,,2352,4180
CG5835,1,4.69e5,94165,,28528,1991
Mvl (Malvolio),1,1.02e5,84761,,4048,3270
Sur (Sulfonylurea receptor),1,60550,29133,,2743,1117
CG34229,1,1.13e5,86885,,2774,5472
ord (orientation disruptor),1,60375,66728,,636,5557
Vago,1,87216,1.64e5,,2659,7149
l(1)G0289 (lethal (1) G0289),1,87565,88304,,2128,2219
CG7966,1,1.15e5,82716,,4155,3389
Eig71Ej,1,1.26e5,,,5176,3688
CG5447,1,7.37e5,1.28e5,,35315,466
DCP1 (Decapping protein 1),1,83208,83382,,4180,3257
Uqcc1 + CG9948,1,43635,57035,,3589,3740
CG9498,1,1.21e5,38864,,2640,3296
CG13314,1,43241,58171,,4602,3414
geko,1,1.09e5,,,1531,5528
geko,2,1.36e5,,,1026,6916
Pisd (Phosphatidylserine decarboxylase),1,1.14e5,77456,,4723,3238
EcR (Ecdysone receptor),1,1.01e5,75266,,1825,5911
EcR (Ecdysone receptor),2,94053,1.07e5,,3536,4523

A few values from above.
Entry for eys (eyes shut) #4 in “Renilla reference signal, replicate 2”: 3222
ord (orientation disruptor), Renilla reference signal, replicate 2: 5557
Entry for Polr2H (RNA polymerase II, I and III subunit H) in “firefly Hh reporter signal, replicate 2”: 90122
14-3-3zeta, firefly Hh reporter signal, replicate 1: 98257
IFT43 (Intraflagellar transport 43), Renilla reference signal, replicate 1: 2762
Value for CG7966 under “Renilla reference signal, replicate 2”: 3389
